This note sets out measurements from publication PMC4684333.

Sequences of proteins named here, by UniProt entry; tags and fusion partners are left off.
UniProt P08515, whole entry: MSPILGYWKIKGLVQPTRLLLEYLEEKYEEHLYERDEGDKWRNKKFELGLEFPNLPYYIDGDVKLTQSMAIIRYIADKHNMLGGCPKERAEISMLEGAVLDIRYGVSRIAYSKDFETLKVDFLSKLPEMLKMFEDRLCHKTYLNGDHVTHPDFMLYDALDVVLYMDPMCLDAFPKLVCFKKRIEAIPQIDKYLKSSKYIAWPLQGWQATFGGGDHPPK

The test system of data set [1] is GST-Ouib-Zf (Drosophila melanogaster). Description: EMSA. The note with it: 2 mM ZnSO4, 4 mM MgCl2; EMSA: 12 mM Hepes pH 7.9, 1 mM DTT, 1 mM EDTA, 60 mM KCl, 4 mM MgCl2, 2 mM ZnSO4, 50 ng/ul poly(dI-dC), 1 mg/ml BSA, 12% glycerol, 4 C; recombinant protein; residues 150-313; protein details: N-terminal GST (pGEX-4T-3); label: 32P 5' end (probe), unlabeled as competitor. On the technique in general: A gel shift assay detects complexes by their altered migration in electrophoresis.

Data set [2] shares this test system. Description: competition with a labelled probe. The note with it: x100 and x200 unlabeled competitor against 32P-ORE WT; EMSA: 12 mM Hepes pH 7.9, 1 mM DTT, 1 mM EDTA, 60 mM KCl, 4 mM MgCl2, 2 mM ZnSO4, 50 ng/ul poly(dI-dC), 1 mg/ml BSA, 12% glycerol, 4 C; recombinant protein; residues 150-313; protein details: N-terminal GST (pGEX-4T-3); label: 32P 5' end (probe), unlabeled as competitor.

The target of data set [3] is T1, FLAG-M1BP (Drosophila melanogaster) (UniProt Q9VHM3).
T1 sequence (looked up, limits assumed): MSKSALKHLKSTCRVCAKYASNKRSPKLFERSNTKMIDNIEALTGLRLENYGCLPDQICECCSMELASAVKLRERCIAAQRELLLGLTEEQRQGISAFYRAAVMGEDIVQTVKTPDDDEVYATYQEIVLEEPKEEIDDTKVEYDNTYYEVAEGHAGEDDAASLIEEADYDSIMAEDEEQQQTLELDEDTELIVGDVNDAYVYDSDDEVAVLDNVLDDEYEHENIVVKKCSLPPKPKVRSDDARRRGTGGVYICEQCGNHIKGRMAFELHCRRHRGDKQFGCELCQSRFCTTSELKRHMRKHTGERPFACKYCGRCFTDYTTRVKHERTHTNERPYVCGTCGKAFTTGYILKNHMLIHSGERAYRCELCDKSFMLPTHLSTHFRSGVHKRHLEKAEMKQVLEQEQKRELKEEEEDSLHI
The data set can be described thus: pull-down (ABCD assay, anti-FLAG western). The note with it: ABCD: 50 mM Hepes pH 7.9, 150 mM NaCl, 0.5% Triton X-100, 20 ng/ul poly(dI/dC), 4 C; protein in a lysate after overexpression; protein details: N-terminal FLAG; label: 5' biotin on strand 1.

Data set [4] has as its target T2, FLAG-Ouib (Ouija board) (Drosophila melanogaster) (UniProt Q9VHM6).
T2 sequence (looked up, limits assumed): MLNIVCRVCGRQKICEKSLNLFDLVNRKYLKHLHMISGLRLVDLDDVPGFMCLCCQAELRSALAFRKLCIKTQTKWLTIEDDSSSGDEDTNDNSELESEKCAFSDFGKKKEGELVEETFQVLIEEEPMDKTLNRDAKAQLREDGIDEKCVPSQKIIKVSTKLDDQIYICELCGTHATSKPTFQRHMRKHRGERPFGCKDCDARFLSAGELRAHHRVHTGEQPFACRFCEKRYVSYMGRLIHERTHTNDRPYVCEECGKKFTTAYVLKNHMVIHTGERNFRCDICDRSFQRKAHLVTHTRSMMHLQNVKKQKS
Description: pull-down (ABCD assay, anti-FLAG western). The note with it: ABCD: 50 mM Hepes pH 7.9, 150 mM NaCl, 0.5% Triton X-100, 20 ng/ul poly(dI/dC), 4 C, protein in a lysate after overexpression, protein details: N-terminal FLAG, label: 5' biotin on strand 1.

A further data set addresses GST alone (UniProt P08515). The data set can be described thus: EMSA. The note with it: 2 mM ZnSO4, 4 mM MgCl2; EMSA: 12 mM Hepes pH 7.9, 1 mM DTT, 1 mM EDTA, 60 mM KCl, 4 mM MgCl2, 2 mM ZnSO4, 50 ng/ul poly(dI-dC), 1 mg/ml BSA, 12% glycerol, 4 C; recombinant protein; protein details: GST; label: 32P 5' end (probe), unlabeled as competitor.

For at least one entry, the source does not settle the construct or the ends of the probe. No signal at the amounts used counts as a negative. For part of these data: Results from cells or extracts need not show a direct contact. For part of these data: Tags and fusion partners may be left off the protein sequences shown. For part of these data: Weaker means in comparison with the reference protein, sequence or condition of that experiment.

In the case of “TCGATACTCCGCACCCAGTGTGACCGTCGAGCGCATGGCATAAA (double strand) [MRE WT (EMSA)]”, the binding result in data set [1] and in data set [2] was “no binding” in each case.

Regarding “TTTGGTATAGTTATACTAGGGCGGCGGGCTGCACCATCTTAAAGT (double strand) [ORE Mut (EMSA)]”, the binding result in data set [1] and in data set [2] was “no binding” in each case.

Consider “TCGATACTCCGCACCCAGTGTGACCGTCGAGCGCATGGCATAAA (double strand) [M1BP binding site (MRE) WT, biotinylated (ABCD)]”, for which the results for the binding result in data set [3] and in data set [4] (did not efficiently precipitate) were “binds” and “binds more weakly”, respectively.

For the sequence “TTTGGTATAGTTATAAGCTTTATTATTTAGGCACCATCTTAAAGT (double strand) [ORE WT (EMSA)]”, the results for the binding result (in the data set with GST alone; in data set [1]; in data set [2]) were “no binding”, “binds” and “binds”, respectively.

Turning to “TTTGGTATAGTTATACTAGGGCGGCGGGCTGCACCATCTTAAAGT (double strand) [spok ORE Mut (transversion) 45 bp, biotinylated (ABCD)]”, the binding result in data set [4] was “no binding”.

Consider “TTTGGTATAGTTATAAGCTTTATTATTTAGGCACCATCTTAAAGT (double strand) [spok ORE WT 45 bp, biotinylated (ABCD)]”, for which the binding result is given as “no binding” in data set [3] and “binds” in data set [4].
